These results are taken from article PMC4432279.

The chains behind the UniProt entries cited, without tags or fusion partners. Residues count along the entry.
UniProt O95071: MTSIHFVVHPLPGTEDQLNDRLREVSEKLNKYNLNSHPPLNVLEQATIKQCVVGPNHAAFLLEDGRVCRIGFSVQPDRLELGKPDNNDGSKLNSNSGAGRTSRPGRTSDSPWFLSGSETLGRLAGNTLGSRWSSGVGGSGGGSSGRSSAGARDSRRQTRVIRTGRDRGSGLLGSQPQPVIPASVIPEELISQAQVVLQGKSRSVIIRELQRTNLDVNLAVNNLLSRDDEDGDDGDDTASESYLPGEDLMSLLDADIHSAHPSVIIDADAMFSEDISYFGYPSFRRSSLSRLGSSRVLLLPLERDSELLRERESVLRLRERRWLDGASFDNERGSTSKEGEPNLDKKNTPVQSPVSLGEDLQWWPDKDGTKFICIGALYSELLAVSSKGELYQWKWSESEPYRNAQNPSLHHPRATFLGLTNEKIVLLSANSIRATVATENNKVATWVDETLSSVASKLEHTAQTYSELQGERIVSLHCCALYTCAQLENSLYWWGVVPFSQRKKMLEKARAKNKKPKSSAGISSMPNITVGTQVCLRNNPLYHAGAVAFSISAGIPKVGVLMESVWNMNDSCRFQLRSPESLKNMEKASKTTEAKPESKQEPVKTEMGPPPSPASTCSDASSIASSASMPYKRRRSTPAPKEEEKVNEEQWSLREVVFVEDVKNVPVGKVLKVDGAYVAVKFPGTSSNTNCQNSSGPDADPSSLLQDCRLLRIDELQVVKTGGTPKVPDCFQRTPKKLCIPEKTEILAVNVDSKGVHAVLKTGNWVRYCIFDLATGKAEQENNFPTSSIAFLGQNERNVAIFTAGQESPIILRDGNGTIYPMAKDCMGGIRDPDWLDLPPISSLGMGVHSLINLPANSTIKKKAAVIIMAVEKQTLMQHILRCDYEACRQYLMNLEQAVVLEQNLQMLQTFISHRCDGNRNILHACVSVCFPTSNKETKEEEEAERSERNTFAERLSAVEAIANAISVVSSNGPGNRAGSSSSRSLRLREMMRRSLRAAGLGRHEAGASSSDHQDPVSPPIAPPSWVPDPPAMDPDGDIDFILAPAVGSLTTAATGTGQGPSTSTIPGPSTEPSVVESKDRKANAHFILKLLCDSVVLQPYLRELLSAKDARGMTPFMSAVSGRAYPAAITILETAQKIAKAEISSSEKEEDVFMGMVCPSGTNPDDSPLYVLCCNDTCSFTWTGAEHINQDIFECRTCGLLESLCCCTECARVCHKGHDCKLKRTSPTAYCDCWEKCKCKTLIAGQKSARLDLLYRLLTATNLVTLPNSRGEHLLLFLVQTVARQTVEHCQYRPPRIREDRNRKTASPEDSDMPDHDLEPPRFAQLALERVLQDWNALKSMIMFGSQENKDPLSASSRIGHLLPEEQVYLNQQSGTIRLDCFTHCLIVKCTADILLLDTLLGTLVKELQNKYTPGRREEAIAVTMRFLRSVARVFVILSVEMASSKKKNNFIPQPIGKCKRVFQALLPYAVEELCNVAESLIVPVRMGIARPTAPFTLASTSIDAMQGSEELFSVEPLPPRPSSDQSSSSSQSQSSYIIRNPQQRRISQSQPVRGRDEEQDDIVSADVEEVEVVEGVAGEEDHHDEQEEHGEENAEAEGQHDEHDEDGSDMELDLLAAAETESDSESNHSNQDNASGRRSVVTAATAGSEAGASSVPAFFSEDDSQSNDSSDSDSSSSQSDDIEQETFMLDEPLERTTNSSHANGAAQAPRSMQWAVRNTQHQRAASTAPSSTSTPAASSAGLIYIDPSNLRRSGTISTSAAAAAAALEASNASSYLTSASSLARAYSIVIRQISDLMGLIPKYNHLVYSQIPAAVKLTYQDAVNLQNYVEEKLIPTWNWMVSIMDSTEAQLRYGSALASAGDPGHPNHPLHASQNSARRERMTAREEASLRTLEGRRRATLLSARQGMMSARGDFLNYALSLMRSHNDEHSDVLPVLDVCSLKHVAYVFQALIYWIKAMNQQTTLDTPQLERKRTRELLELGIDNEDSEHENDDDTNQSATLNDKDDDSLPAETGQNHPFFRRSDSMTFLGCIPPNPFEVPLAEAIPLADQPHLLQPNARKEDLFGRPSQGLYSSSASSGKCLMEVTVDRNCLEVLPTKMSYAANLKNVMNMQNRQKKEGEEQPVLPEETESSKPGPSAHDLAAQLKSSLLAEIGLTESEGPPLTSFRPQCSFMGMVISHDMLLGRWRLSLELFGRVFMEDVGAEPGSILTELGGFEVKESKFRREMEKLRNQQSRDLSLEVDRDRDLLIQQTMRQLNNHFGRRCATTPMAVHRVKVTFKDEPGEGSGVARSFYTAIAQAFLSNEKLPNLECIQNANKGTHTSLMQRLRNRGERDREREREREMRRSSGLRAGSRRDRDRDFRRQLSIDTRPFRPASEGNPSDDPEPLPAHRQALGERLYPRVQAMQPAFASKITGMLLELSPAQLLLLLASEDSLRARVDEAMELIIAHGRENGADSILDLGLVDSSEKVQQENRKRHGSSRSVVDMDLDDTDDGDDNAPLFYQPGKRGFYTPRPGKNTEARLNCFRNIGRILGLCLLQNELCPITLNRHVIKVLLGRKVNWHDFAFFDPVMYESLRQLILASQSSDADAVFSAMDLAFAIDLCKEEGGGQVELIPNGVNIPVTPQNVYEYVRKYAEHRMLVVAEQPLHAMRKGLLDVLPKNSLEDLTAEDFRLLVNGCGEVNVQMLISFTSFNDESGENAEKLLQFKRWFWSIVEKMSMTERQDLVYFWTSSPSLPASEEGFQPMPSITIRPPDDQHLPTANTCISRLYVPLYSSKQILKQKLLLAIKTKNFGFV
UniProt Q07021, residues 74-282: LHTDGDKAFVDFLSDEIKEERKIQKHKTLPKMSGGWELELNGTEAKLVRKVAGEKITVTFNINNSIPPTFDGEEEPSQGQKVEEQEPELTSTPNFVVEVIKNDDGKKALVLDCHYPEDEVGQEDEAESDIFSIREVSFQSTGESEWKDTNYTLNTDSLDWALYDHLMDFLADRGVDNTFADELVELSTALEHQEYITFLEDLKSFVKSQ
UniProt Q9NQH7, residues 32-507: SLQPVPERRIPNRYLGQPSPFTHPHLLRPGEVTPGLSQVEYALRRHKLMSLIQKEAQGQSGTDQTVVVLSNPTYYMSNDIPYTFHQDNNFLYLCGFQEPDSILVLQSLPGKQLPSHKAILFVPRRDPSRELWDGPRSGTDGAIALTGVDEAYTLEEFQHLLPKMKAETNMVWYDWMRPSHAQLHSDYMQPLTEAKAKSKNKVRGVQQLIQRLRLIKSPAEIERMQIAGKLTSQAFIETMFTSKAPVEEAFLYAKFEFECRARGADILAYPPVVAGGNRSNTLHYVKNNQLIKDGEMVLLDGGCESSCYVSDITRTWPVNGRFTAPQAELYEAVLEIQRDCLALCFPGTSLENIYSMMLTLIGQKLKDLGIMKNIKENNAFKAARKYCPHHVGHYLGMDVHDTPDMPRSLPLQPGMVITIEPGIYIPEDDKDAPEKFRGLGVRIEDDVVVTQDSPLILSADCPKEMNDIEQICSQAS
UniProt O43684: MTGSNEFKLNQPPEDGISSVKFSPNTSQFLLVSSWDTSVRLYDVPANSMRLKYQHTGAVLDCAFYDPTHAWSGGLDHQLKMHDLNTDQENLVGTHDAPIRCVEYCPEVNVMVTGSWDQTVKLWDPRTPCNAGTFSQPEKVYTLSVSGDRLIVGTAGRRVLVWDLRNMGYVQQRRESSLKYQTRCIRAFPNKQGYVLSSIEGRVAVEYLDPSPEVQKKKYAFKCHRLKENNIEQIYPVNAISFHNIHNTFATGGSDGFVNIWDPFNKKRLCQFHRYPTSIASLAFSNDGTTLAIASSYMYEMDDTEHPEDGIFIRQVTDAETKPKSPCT

Results are given in words; binding and its absence hold for the method and conditions named. Binding seen in cells or lysates may run through a third protein. Here binding means that the protein was enriched with, or labelled near, the bait; the list need not be complete.

The assay deals with HS-EDD (2×HA/2×Strep-tagged E3 identified by differential display) (human) (UniProt O95071). In words: affinity purification with mass spectrometry; lysates of HS-EDD or HS tag HEK293 cells tandem affinity-purified by HA and Streptactin resins; SDS-PAGE, in-gel trypsin digest, LC-MS (LTQ-Orbitrap); proteins found in the HS-only sample removed; n = 3.
As for C1QBP (from UniProt Q07021 74-282), the binding result is reported as “binds”.

Take “Xaa-Pro aminopeptidase 3 (from UniProt Q9NQH7 32-507) (enzyme)”: the binding entry is “binds”.

On to “endogenous BUB3 (budding uninhibited by benzimidazoles 3) (from UniProt O43684 1-328)”, for which the binding entry is recorded as “binds”.
